Measurements reported in publication PMC8024281.
No constants are given. Whether binding was seen depends on the method and setting. In cells and extracts the contact can be indirect. A yes stands for co-enrichment or nearness to the bait. Other partners may have been found. For some assays here: No binding means not detected with the bait.

Sequences of proteins named here, by UniProt entry; tags and fusion partners are left off.
UniProt P42771: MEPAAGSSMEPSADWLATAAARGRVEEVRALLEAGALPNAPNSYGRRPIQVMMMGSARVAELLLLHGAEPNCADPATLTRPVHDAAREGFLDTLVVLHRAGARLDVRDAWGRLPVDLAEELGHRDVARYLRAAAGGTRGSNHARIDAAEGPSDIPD
UniProt P42772: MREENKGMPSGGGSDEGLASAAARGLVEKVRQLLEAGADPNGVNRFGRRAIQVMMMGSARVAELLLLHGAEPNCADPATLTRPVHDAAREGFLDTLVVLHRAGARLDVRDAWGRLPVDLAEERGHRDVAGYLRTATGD
UniProt P06733: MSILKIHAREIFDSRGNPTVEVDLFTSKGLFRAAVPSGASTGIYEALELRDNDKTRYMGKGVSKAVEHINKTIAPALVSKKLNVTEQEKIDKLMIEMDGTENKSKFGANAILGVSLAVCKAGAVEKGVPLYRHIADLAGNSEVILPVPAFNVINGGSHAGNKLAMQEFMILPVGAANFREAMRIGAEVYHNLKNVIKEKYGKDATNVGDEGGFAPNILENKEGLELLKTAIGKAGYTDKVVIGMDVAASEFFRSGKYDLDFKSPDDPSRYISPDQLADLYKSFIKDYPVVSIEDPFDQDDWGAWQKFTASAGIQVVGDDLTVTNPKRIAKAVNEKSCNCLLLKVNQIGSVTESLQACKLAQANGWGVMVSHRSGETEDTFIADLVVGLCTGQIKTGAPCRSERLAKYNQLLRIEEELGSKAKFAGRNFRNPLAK

Legend:
[1] = molecular target: Histidine-tagged p16^INK4A (wild type), E. coli-produced (human) (UniProt P42771); experiment: affinity purification with mass spectrometry; E. coli-produced bait on Ni-NTA column incubated with total proteins of parental UMUC3; imidazole eluate resolved by two-dimensional electrophoresis; spots absent from the control and the p16 fractions analysed by mass spectrometry; only the target purified
[2] = molecular target: Histidine-tagged p15^INK4B (wild type), E. coli-produced (human) (UniProt P42772); experiment: as above

For “enolase-1 (endogenous, UMUC3) (from UniProt P06733 1-434) (enzyme)”, the binding [1] was “no binding” and the binding [2] was “binds”.
